Measurements published in US20150284768A1.
Results are given in words; binding and its absence hold for the method and conditions named. Some results given as binding are weak or reduced against the parent protein; the word gives no strength.

How the values were obtained:
[1] = biological target: wild type (WT) Hermes Transposase (Musca domestica); experiment: oligomeric state in solution (FIG. 4 diagram); self-association
[2] = biological target: wild type (WT) Hermes Transposase (Musca domestica); experiment: size-exclusion chromatography and sedimentation equilibrium; self-association

binding [1]: binds
binding [2]: binds
B1: wild type (WT) Hermes Transposase (enzyme)
chain: MQKMDNLEVKAKINQGLYKITPRHKGTSFIWNVLADIQKEDDTLVEGWVFCRKCEKVLKYTTRQTSNLCRHKCCASLKQSRELKTVSADCKKEAIEKCAQWVVRDCRPFSAVSGSGFIDMIKFFIKVGAEYGEHVNVEELLPSPITLSRKVTSDAKEKKALISREIKSAVEKDGASATIDLWTDNYIKRNFLGVTLHYHENNELRDLILGLKSLDFERSTAENIYKKLKAIFLQFNVEDLSSIKFVTDRGANVVKSLANNIRINCSSHLLSNVLENSFEETPELNVPILACKNIVKYFKKANLQHRLRSSLKSECPTRWNSTYTMLRSILDNWESVIQILSEAGETQRIVHINKSIIQTMVNILDGFERIFKELQTCSSPSLCFVVPSILKVKEICSPDVGDVADIAKLKVNIIKNVRIIWEENLSIWHYTAFFFYPPALHMQQEKVAQIKEFCLSKMEDLELINRMSSFNELSATQLNQSDSNSHNSIDLTSHSKDISTTSFFFPQLTQNNSREPPVCPSDEFEFYRKEIVILSEDFKVMEWWNLNSKKYPKLSKLALSLLSIPASSAASERTFSLAGNIITEKRNRIGQQTVDSLLFLNSFYKNFCKLDI
